We go through 3 substances from paper PMC3983036.

No constants are given. Whether binding was seen depends on the method and setting. In cells and extracts the contact can be indirect. A yes stands for co-enrichment or nearness to the bait. Other partners may have been found. A no says only that the protein was not detected with the bait. Where a sequence is shown, tags or fusion partners need not be part of it.

This experiment concerns the target T1, Myc::Ecd fusion protein (Drosophila Ecdysoneless) (Drosophila melanogaster) (UniProt Q9W032).
T1 sequence: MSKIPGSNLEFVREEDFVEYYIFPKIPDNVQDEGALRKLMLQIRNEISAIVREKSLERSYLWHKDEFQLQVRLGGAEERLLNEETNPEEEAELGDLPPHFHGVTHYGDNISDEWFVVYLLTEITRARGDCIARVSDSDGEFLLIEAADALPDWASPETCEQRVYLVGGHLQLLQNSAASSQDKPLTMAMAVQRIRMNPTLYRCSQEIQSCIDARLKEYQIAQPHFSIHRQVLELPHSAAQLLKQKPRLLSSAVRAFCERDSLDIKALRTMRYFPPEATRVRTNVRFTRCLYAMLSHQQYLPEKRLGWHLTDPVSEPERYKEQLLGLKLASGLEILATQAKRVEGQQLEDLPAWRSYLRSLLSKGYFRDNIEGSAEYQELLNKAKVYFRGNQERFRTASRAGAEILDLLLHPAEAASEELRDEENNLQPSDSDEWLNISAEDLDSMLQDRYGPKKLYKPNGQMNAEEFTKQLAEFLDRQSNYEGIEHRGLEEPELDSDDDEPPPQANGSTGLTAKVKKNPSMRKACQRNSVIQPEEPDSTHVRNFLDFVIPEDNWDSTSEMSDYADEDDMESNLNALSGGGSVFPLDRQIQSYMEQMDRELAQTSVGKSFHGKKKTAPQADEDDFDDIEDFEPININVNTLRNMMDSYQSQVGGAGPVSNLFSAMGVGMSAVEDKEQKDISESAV
As to the kind of experiment: affinity purification with mass spectrometry; extracts of S2 cells expressing Myc::Ecd or the Myc tag alone (pTMW) affinity purified by the Myc epitope, silver-stained SDS-PAGE, cut-out gel sections digested with trypsin and analysed by LC-MS/MS.
In the case of “Prp8 (endogenous, Drosophila S2 cells) (from UniProt A1Z8U0 1-2396)”, the binding entry is given as “binds”.

Take “Snu114 (endogenous, Drosophila S2 cells)”: the binding entry is “binds”. As to Aar2 (endogenous, Drosophila S2 cells), the binding entry is “no binding”.
